Data: US12527788B2, “Defining RNA-small molecule affinity landscapes enables design of a small molecule inhibitor of an oncogenic non-coding RNA” (University of Florida Research Foundation, Incorporated, priority 2017, dated 2026)

system: RNA motifs of 3×3 ILL; test: HiT-StARTS statistical analysis (Zobs) of RNA-seq of 2DCS selection; type: binding; conditions: 3×3 ILL selection

Row | SMILES | Range of Zobs for Binders
1 | CN1CCN(c2ccc(-c3ccc4nc(-c5ccc(OCCCC(=O)NCCCN=[N+]=[N-])cc5)[nH]c4c3)cc2)CC1 [Compound 1] | 8-72
2 | Cc1cc(-c2nc3ccc(-c4ccc(N5CCN(C)CC5)cc4)cc3[nH]2)cc(C)c1OCCCC(=O)NCCCN=[N+]=[N-] [Compound 2] | 8-44
3 | CC(C)c1cc(-c2nc3ccc(-c4ccc(N5CCN(C)CC5)cc4)cc3[nH]2)cc(C(C)C)c1OCCCC(=O)NCCCN=[N+]=[N-] [Compound 3] | 12-29
4 | CN1CCN(c2ccc(-c3ccc4nc(-c5cc(C(C)(C)C)c(OCCCC(=O)NCCCN=[N+]=[N-])c(C(C)(C)C)c5)[nH]c4c3)cc2)CC1 [Compound 4] | 7-29
